# PubChem BioAssay AID1439 (NMMLSC, 2008)
# By UniProt entry, the sequences of proteins in these tests, tags left out.
# UniProt P09471, whole entry, looked up: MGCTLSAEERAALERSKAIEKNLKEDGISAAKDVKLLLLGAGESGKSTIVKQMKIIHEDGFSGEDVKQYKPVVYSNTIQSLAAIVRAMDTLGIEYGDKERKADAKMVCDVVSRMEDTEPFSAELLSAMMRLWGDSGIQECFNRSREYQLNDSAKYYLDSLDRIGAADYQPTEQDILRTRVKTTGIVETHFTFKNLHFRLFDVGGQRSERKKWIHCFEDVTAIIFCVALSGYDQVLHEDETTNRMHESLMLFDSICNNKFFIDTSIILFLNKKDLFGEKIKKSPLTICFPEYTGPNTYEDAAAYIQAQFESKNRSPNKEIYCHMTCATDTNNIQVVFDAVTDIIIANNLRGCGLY
# About 770 (0.35%) of roughly 220,000 compounds were called active. The shares of active, inactive and inconclusive entries below differ from those in the screen. Rule as the data show it: active = binding response below about 49% or above about 150%; inconclusive = no clear call, values can overlap the other calls; inactive = in between.
# Target: Guanine nucleotide-binding protein G(o) subunit alpha (Homo sapiens) (UniProt P09471)
# Test: RGS7-Galphao binding modulators, primary screen, biochemical, multiplexed bead flow cytometry (AID 1439);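 also: fluorescent Galphao held in activated GDP-AlF4 state binding bead-coupled RGS7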
# Details: at 10 µM, actives lie on both sides
row,SMILES,binding response (% of control)
1,COc1ccc(Cc2nnc(Nc3ccc(Cl)cc3)[nH]c2=O)cc1,inconclusive: 98.3%
2,OCC(O)C(O)C(O)C(O)c1nc2ccccc2[nH]1 (stereo not drawn),inconclusive: 92.2%
3,Cc1cc2nc(/N=C(\N)NC(=O)C(C)C)nc(C)c2cc1C,inconclusive: 76.4%
4,CCOc1ccc(C2CC(=O)N(Nc3ccc([N+](=O)[O-])cc3[N+](=O)[O-])C2=O)cc1 (stereo not drawn),inconclusive: -850%
5,O=c1c2cc(NC(=S)NC3CCCC3)ccc2nc2n1CCCCC2,inconclusive: 91%
6,CCCCC(=O)N1CCCC(C)C1 (stereo not drawn),inconclusive: 39.4%
7,CN1C(=S)SC(/[N+]([O-])=C/c2ccc(Cl)cc2)C1(C)C (stereo not drawn),inconclusive: 104%
8,S=c1[nH]nc(Cn2cnc3ccccc32)n1-c1ccccc1,inactive: 113%
9,Cc1nn(CC(=O)NCC2CCCO2)c(=O)c2ccccc12 (stereo not drawn),inactive: 106%
10,O=C(N/N=C/c1cccs1)C(=O)Nc1cccc(Cl)c1,inconclusive: 106%
11,COc1ccc(N2C(=O)CS/C2=N\C(=S)Nc2ccccc2)cc1,inconclusive: 171%
12,COc1ccc(C2=NN(C(=O)CN3CCOCC3)C(c3nc4ccccc4[nH]3)C2)cc1 (stereo not drawn),inconclusive: 101%
13,CCOc1ccc(N(CC(=O)Nc2ccccc2C)S(=O)(=O)c2c(C)[nH]c(=O)[nH]c2=O)cc1,inconclusive: 105%
14,CC1CCCN(C(=O)Nc2ccc(Br)cc2Cl)C1 (stereo not drawn),inconclusive: 134%
15,CN1CN(C)C(c2ccncc2)=C1c1ccncc1,inconclusive: 98.7%
16,Cc1c(C(=O)N/N=C/c2ccncc2)no[n+]1[O-],inactive: 101%
17,COC(=O)c1cn(C(=O)/C=C/c2ccc(OC)c(OC)c2)c2ccccc12,inconclusive: 78.1%
18,CC(C)(C)c1csc(N/N=C/c2cccnc2)n1,inconclusive: 41.6%
19,COc1ccc(-n2c(=O)c3c4c(sc3n(CC(=O)Nc3cc(C)[nH]n3)c2=O)CCC4)c(OC)c1,inconclusive: 81.1%
20,CS(=O)(=O)c1ccc(C(=O)NC2CCCc3ccccc32)cc1 (stereo not drawn),inconclusive: 104%
21,CN(C)/C=C/c1c([N+](=O)[O-])c2ccc(O)cc2n1-c1ccccc1,inconclusive: 326%
22,Cn1c(SCC(=O)O)nnc1-c1cccc(NC(=O)c2cccc3ccccc23)c1,inconclusive: 170%
23,CC1CCN(c2c(NCC3CCC(C(=O)NCc4ccccc4Cl)CC3)c(=O)c2=O)CC1 (stereo not drawn),inactive: 104%
24,CCN(C(=O)COC(=O)/C=C/c1ccc(S(=O)(=O)N2CCc3ccccc32)cc1)C1CCS(=O)(=O)C1 (stereo not drawn),inactive: 103%

# 3 entries already listed, ordered by count of non-hydrogen atoms, smallest number first:
row,SMILES,binding response (% of control)
8,S=c1[nH]nc(Cn2cnc3ccccc32)n1-c1ccccc1,inactive: 113%
17,COC(=O)c1cn(C(=O)/C=C/c2ccc(OC)c(OC)c2)c2ccccc12,inconclusive: 78.1%
12,COc1ccc(C2=NN(C(=O)CN3CCOCC3)C(c3nc4ccccc4[nH]3)C2)cc1 (stereo not drawn),inconclusive: 101%

# More results follow.

row,SMILES,binding response (% of control)
1,O=C(CN1C(=O)NC2(CCOc3ccccc32)C1=O)Nc1ccc2c(c1)OCCO2 (stereo not drawn),inactive: 98.7%
2,CCN1CCN(C(=O)NCc2ccccc2)CC1,inconclusive: 66.2%
3,CN(C)S(=O)(=O)c1cccc(COC(=O)c2ccc(Cl)cc2O)c1,inconclusive: 98.2%
4,Cn1c(SCC(=O)NCC2CCCO2)nnc1-c1cccc(NC(=O)c2ccccc2F)c1 (stereo not drawn),inconclusive: 106%
5,CCOC(CNC(=O)Cn1nc(C)c2ccccc21)OCC,inactive: 97.3%
6,O=[N+]([O-])c1ccc(COn2nnc3ccccc32)cc1,inconclusive: 101%
7,N#C/C(=C\c1ccco1)C(=O)Nn1cnnc1,inactive: 97.1%
8,COCCNc1nc2nonc2nc1N(C)Cc1ccc(C)cc1,inactive: 101%
9,CCN1C(=O)C(CC(=O)Nc2ccccc2)S/C1=N\c1ccccn1 (stereo not drawn),inactive: 99.7%
10,COc1cc(/C=C2\C(=O)N(c3ccc(NC(C)=O)cc3)N=C2c2ccccc2)ccc1O,inconclusive: 80.9%
11,C(CNC1C2CC3CC(C2)CC1C3)CN1CCOCC1 (stereo not drawn),inconclusive: 122%
12,CCCSc1nc(C)c(CC(=O)OCC)c(=O)[nH]1,inactive: 104%
13,CCOC(=O)c1c(NC(=O)Nc2ccc(F)cc2)sc2c1CCN(C)C2,inconclusive: 134%
14,C=CCOc1c(CNC2CCCC2)cc(Cl)cc1OC,inactive: 103%
15,CN1CCN(CCC(=O)N/N=C/c2ccccc2F)CC1,inconclusive: 107%
16,CCc1ccc(NC(=O)Cc2c(C(=O)O)n(C)c3ccccc23)cc1,inactive: 102%
17,Cc1cc(C)n2nc(Sc3ncccc3[N+](=O)[O-])nc2n1,inconclusive: 92.8%
18,C=C(C)CSc1nc2c(c(=O)[nH]c(=O)n2C)n1CCC(C)C,inactive: 99.8%
19,COc1ccc2nc(NC(=O)Cn3cnc4ccccc4c3=O)sc2c1,inconclusive: 70.5%
20,O=C(Cn1c2[n+](c3ccc(C(F)(F)F)cc31)CCCCC2)Nc1ccccc1,inactive: 104%
21,O=C(O)CSCC(=O)N1CCCN(c2nc3ccc(Cl)cc3s2)CC1,inconclusive: 102%
22,O=C(CCl)NNC(=O)c1c(O)c2ccccc2[nH]c1=O,inconclusive: 122%
23,CC(C)(C)N=C1NN=C(c2ccc(Cl)cc2)CS1,inconclusive: 118%
24,O=C(Cn1cc(C(F)(F)F)ccc1=O)Nc1ccc(N2CCOCC2)cc1,inconclusive: 106%

row,SMILES,binding response (% of control)
1,Cc1c(Br)c([N+](=O)[O-])nn1CC(=O)NCc1cccnc1,inactive: 108%
2,COc1ccc(-c2nn(-c3ccccc3)cc2/C=C/C(=O)N2CCN(c3ccccn3)CC2)cc1,inactive: 97.8%
3,O=C(Cc1c[nH]c2ccccc12)NC1(C(=O)NC2CCCC2)CCCCC1,inactive: 101%
4,O=C(Nc1nccs1)c1cccc(NC(=O)C(F)(F)F)c1,inconclusive: 97.8%
5,CCOC(=O)Cc1nnc(NC(=O)CSc2nc3ccccc3[nH]2)s1,inconclusive: 90.9%
6,NC(=O)/C(=C/c1ccco1)C(N)=S,inconclusive: 103%
7,COc1ccc2c(c1)C=C(CN1CCN(C3CCCC3)C(CCO)C1)CO2 (stereo not drawn),inconclusive: 120%
8,C=CCN(c1ccc(F)cc1)S(=O)(=O)c1cc(C(=O)OCC(=O)N(C)C2CCS(=O)(=O)C2)ccc1Cl (stereo not drawn),inconclusive: 94.9%
9,Cc1ccc(NC(=O)CN(C)S(=O)(=O)c2cccc3cccnc23)c(C)c1,inconclusive: 110%
10,Cc1ccc(-c2nnc(-c3cc(C)on3)o2)cc1,inconclusive: 92.7%
11,NC(N)=Nc1cc2ccccc2c2ccccc12,inconclusive: -1.62%
12,Cc1ccccc1-n1nc(C(=O)O)c(C)c(C#N)c1=O,inactive: 109%
13,Cc1[nH]c2ccccc2c1C(c1ccccn1)N1CCCC1 (stereo not drawn),inconclusive: 118%
14,COc1ccc(S(=O)(=O)NCc2ccc(C(=O)N3CCc4ccccc4C3)cc2)cc1,inactive: 103%
15,COc1cc2nc(Cl)nc(NCCO)c2cc1OC,inconclusive: 90.7%
16,CCCc1cc(=O)[nH]c(SCC(=O)Nc2sc3c(c2C#N)CCC(C)C3)n1 (stereo not drawn),inconclusive: 91.8%
17,CC(C)CNC(=O)CC1Nc2ccccc2NC1=O (stereo not drawn),inconclusive: 80.6%
18,CC(=O)Nc1nc(C)c(CCCOc2ccc([N+](=O)[O-])cc2)c(=O)[nH]1,inconclusive: 274%
19,CCN(CC)C(=O)c1nn(-c2ccccc2)c2c1C1CCC2(C)C1(C)C (stereo not drawn),inconclusive: 88.9%
20,O=C(O)c1nnn(-c2ccc([N+](=O)[O-])cc2)c1-c1ccccc1,inconclusive: 70.8%
21,Cn1nc([N+](=O)[O-])nc1S(C)(=O)=O,inconclusive: 81.7%
22,N#CCCN(Cc1ccccc1)C(=S)Nc1ccc(F)cc1,inconclusive: 122%
23,O=C(CSc1nnnn1-c1ccc2c(c1)OCCO2)N1CCN(C(=O)c2ccco2)CC1,inactive: 97.1%
24,COc1ccc(NS(=O)(=O)c2ccc(O)c(NC(=O)c3ccc(S(=O)(=O)N4CCCC4)cc3)c2)cc1,inconclusive: 94.3%

row,SMILES,binding response (% of control)
1,COc1ccc2cc3cc(C(=O)NCc4cccnc4)oc3nc2c1,inactive: 100%
2,Cc1ccccc1NC(=O)c1cc2ccccn2n1,inconclusive: 104%
3,CCS(=O)(=O)C(C)(CCl)C(=O)Nc1ccc(C(=O)OC)cc1 (stereo not drawn),inconclusive: 115%
4,O=C(Nc1cccc(CCc2ccccn2)c1)c1ccc(Cl)cc1,inconclusive: 76.9%
5,Cc1cc(-n2c(SCCC#N)nnc2-c2cccnc2)ccc1Cl,inactive: 98.7%
6,O=C1COc2cccnc2N1,inconclusive: 123%
7,CC(=O)NC(NC(=S)Nc1cccc(Br)c1)C(Cl)(Cl)Cl (stereo not drawn),inconclusive: 141%
8,O=C(CSC(=S)N1CCCCC1)c1c(F)cccc1F,inconclusive: 148%
9,CC(=O)CC(=O)Nc1ccc2ccccc2c1,inconclusive: 108%
10,CCOC(=O)C1CCN(C(=O)c2cccnc2Oc2ccccc2)CC1,inconclusive: 109%
11,Cc1cc([N+](=O)[O-])nn1CC(=O)Nc1ccc(F)cc1,inconclusive: 92.5%
12,CCCCn1c(=O)[nH]c(=O)c2c1nc(-c1ccccc1F)n2Cc1ccccc1OC,inactive: 103%
13,CCc1onc(C)c1C(=O)O,inconclusive: 92.4%
14,Cc1nn(C(=O)c2nn(C)cc2[N+](=O)[O-])c(C)c1Cl,inconclusive: 114%
15,Cc1ccc(S(=O)(=O)N2CCN(C(=O)CSc3nncs3)CC2)cc1,inconclusive: 238%
16,COc1cc(/C=C/c2cc(C(=O)O)c3ccccc3n2)ccc1OC(F)F,inconclusive: 102%
17,O=C(O)CN1C(=O)NC2(CCOc3ccccc32)C1=O (stereo not drawn),inconclusive: 111%
18,CCCCC(=O)Nc1cccc(NC(=O)c2ccc(Br)cc2)c1,inactive: 137%
19,COc1ccc(OC)c(C(=O)c2ccc(Cl)cc2)c1,inconclusive: 37.8%
20,CCCNC(=O)Nc1cc(S(=O)(=O)CC)ccc1O,inconclusive: 112%
21,O=c1oc(-c2ccccc2NS(=O)(=O)c2ccc(Cl)cc2)nc2ccccc12,inconclusive: 92.2%
